Data from PubChem BioAssay AID588499 (NMMLSC, 2011).
Among all 360,000 compounds or so, about 610 (0.17%) were called active. Inconclusive means that the source gave no clear call. Such entries were picked first, then a sample of the others. Rule as the data show it: active = inhibition above about 30%; inconclusive = no clear call, values can overlap the other calls; inactive = below that.

The molecules below were run on Botulinum neurotoxin type A light chain protease (Clostridium botulinum A str. ATCC 3502) (assay: blockers of BoNT/A LC substrate cleavage – biochemical, flow cytometry, MLPCN library, primary screen (AID 588499; also: plate controls were buffer without enzyme for full effect and enzyme alone for no effect)). Settings: multiplex microsphere protease substrate cleavage, at 10 µM, hits give high values.

SMILES | inhibition
Clc1cccc(-c2ccc(C=Nc3ccc(N4CCOCC4)cc3)o2)c1Cl | inactive: -0.4%
O=C(NC1CCCC1)C1C2C=CC(C2)C1C(=O)N1CCOCC1 (centres undefined) | inconclusive: 2.3%
CC(C)C(C)NC(=O)COc1ncnc2sccc12 (centres undefined) | inactive: -0.3%
OC(Cc1cccc(C=NN2CCOCC2)n1)(C(F)(F)F)C(F)(F)F | inactive: 0.3%
c1ccc2sc(-c3ccc4c(c3)OCO4)nc2c1 | inactive: -0.9%
Cc1cc(NC(=O)C2CC(c3cccc(Br)c3)=NO2)no1 (centres undefined) | inconclusive: 1.9%
CC/C(=N\NC(=O)Nc1nonc1N)c1ccc(OC)c(OC)c1 | inconclusive: -6.7%
Cc1ccc(S(=O)(=O)c2cc3c(=O)n4ccccc4nc3n(Cc3ccco3)c2=N)cc1 | inconclusive: 4.8%
CCSC1=C(C#N)C(c2ccc(C)s2)CC(=O)N1 (centres undefined) | inconclusive: -0.7%
Cc1cccc(NC(=O)c2ccc(N3CCCCC3)c([N+](=O)[O-])c2)n1 | inconclusive: -3.6%
CCOC(=O)C(=N/O)/C(C)=N/NC(=O)C(=O)Nc1ccc(Cl)cc1 | inconclusive: 11.1%
O=C(Cc1ccccc1)N/N=C/c1ccc(S(=O)(=O)O)o1 | inconclusive: -7.6%
O=C(Nc1ccccc1C(=O)Nc1ccc(Br)cn1)c1cccc([N+](=O)[O-])c1 | inconclusive: 2.9%
Cc1ccc2[nH]c(=O)c(CN(CC3CCCO3)S(=O)(=O)c3c(C)ccc4nsnc34)cc2c1 (centres undefined) | inconclusive: 4.5%
Cc1ccc(-c2cc(C(=O)N3CCN(C(=O)c4ccco4)CC3)no2)cc1 | inactive: 1.4%
O=C(CCN1CCN(c2ccccc2F)CC1)Nc1ccc(F)cc1 | inconclusive: 3.2%
Cc1ccc(N(C)S(=O)(=O)c2cccc(C(=O)Nc3ccc(C)cn3)c2)cc1 | inconclusive: -4%
CCCC(=O)NCc1ccc2c(c1)cc(C)n2C | inactive: 17.4%
Cc1cc(=O)oc2cc(NC(=O)Cc3ccccc3[N+](=O)[O-])ccc12 | inactive: 0.1%
CCN(C(=O)CCN1C(=O)/C(=C/c2ccccc2)SC1=S)C1CCS(=O)(=O)C1 (centres undefined) | inactive: 0.6%

Copied from the list:
In inhibition, CC(C)C(C)NC(=O)COc1ncnc2sccc12 (centres undefined) is listed with inactive: -0.3%
In inhibition, Cc1cc(NC(=O)C2CC(c3cccc(Br)c3)=NO2)no1 (centres undefined) is listed with inconclusive: 1.9%

(further entries)

SMILES | inhibition
Clc1ccc2nc(SCc3nnc(-c4ccccc4)o3)[nH]c2c1 | inconclusive: -1.7%
CCOC(=O)C1=C(COC(=O)CSc2ccc(C)cc2)NC(=O)NC1C (centres undefined) | inactive: -0.5%
COc1ccc(OC)c(/C=C/c2nc3ccccc3[nH]c2=O)c1 | inconclusive: 11.3%
O=C(Nc1cccc2cccnc12)c1ccc(Br)o1 | inconclusive: 1.1%
Cc1ccc(NC(=O)/C(=C/c2cccc([N+](=O)[O-])c2)NC(=O)C2CCCCC2)c(C)c1 | inconclusive: -0.4%
Cc1nc(NC(=O)COc2ccccc2)sc1C(=O)Nc1cccc(Cl)c1 | inconclusive: -5.1%
O=C(CCSCCc1ccccn1)Nc1ccc(Cl)cn1 | inconclusive: 4%
CCCc1nnc(NC(=O)CCC(=O)N2CCN(c3ccccn3)CC2)s1 | inconclusive: 6.6%
COc1cc(C2C(C#N)=C(N)Oc3n[nH]c(-c4ccccn4)c32)cc(OC)c1OC (centres undefined) | inconclusive: -1.4%
Cc1c(C(=O)NNc2c(Cl)cccc2Cl)n(C)oc1=O | inconclusive: 9.7%
COc1cccc(CN(C(=O)Cc2c[nH]c3ccccc23)C(C(=O)NC2CCCCC2)c2cccs2)c1 (centres undefined) | inconclusive: 2.8%
N#Cc1ccc(-c2ccco2)nc1SCC(=O)c1ccc(Cl)cc1 | active: 55%
O=C(O)CCC(=O)NNC(=O)CCC1CCCCC1 | inactive: -0.9%
CC(=O)C1=C(C)OC(N)=C(C#N)C1c1cc([N+](=O)[O-])ccc1Cl (centres undefined) | inconclusive: 20%
CC1=C(C(=O)Nc2ccc(Cl)cc2)C(c2cccs2)n2nnnc2N1 (centres undefined) | inconclusive: -3%
O=C(Nc1ccccc1OC(F)F)c1ccc(S(=O)(=O)N2CCCC2)cc1 | inactive: 1.1%
O=C(CSc1ncccn1)NCC1CCCO1 (centres undefined) | inconclusive: -14.6%
Cc1cc(C(=O)NNC(=S)NC2CCCCC2)cs1 | inactive: -1.6%
Clc1ccc(CSc2snnc2-c2ccccc2)cc1 | inconclusive: -4.3%
Cc1ccc2nc(/C(C#N)=C\c3cc(C)n(-c4cccc([N+](=O)[O-])c4)c3C)[nH]c2c1 | inconclusive: 0.4%

SMILES | inhibition
Cc1cccc(Cn2c(Sc3nc(C)cs3)nc3c2c(=O)[nH]c(=O)n3C)c1 | inconclusive: 2.4%
Nc1nn(-c2ccccc2Cl)cc1-c1nn[nH]n1 | inconclusive: -57.2%
Cn1nc([N+](=O)[O-])nc1Oc1ccccc1N | inconclusive: -2%
CCOC(=O)C(=O)N/N=C(/c1ccccc1)c1ccc(OC)cc1 | inconclusive: 39.2%
COC(=O)COc1ccc(S(=O)(=O)N2CCOCC2)cc1C | inconclusive: 3.3%
Cc1cc(NC(=O)Nc2cccc(Cl)c2)n(-c2ccccc2)n1 | inconclusive: -45.3%
COc1ccc(N=c2oc3cc(O)ccc3cc2C(=O)NCC2CCCO2)c(OC)c1 (centres undefined) | inactive: 3.4%
COc1ccc2ccccc2c1CNCc1ccccn1 | inconclusive: 0.9%
CCOc1ccc2oc(C(=O)OCC(=O)NC(=O)NC)c(C)c2c1 | inactive: -0.3%
CCn1c(SCC(=O)Nc2cc(C)on2)nnc1-c1ccc(S(=O)(=O)N2CCCC2)cc1 | inconclusive: -0.1%
CCOc1ccc(C(=O)Nc2nncs2)cc1OCC | inconclusive: -1.4%
Cc1cccc(OCCCn2ccnc2)c1 | inconclusive: -2.4%
O=C(Nn1c(O)c(C=C2N=c3ccccc3=N2)sc1=S)c1ccccc1 | active: 108%
CC(C)NC(=O)CSc1nnc(-c2ccc3ncccc3c2)n1C | inconclusive: 5.3%
CC(C)c1ccc(N=Cc2c(O)n(C3CC3)c(=S)[nH]c2=O)cc1 | inconclusive: 12.3%
O=C(N/N=C/c1ccc(O)cc1)c1cc(-c2ccc3c(c2)OCO3)n[nH]1 | inactive: 0%
Cc1cccc(C(=O)NCc2nnc(SCC(=O)Nc3nncs3)n2C)c1 | inactive: -0.4%
Cc1ccccc1NC(=O)Cn1cccc1 | inactive: -0.3%
CC(C)CN(C(=O)COC(=O)c1ccc([N+](=O)[O-])s1)c1c(N)n(Cc2ccccc2)c(=O)[nH]c1=O | inconclusive: 3.8%
